Laboratory results from paper PMC10908090.
Results are given in words; binding and its absence hold for the method and conditions named. Binding seen in cells or lysates may run through a third protein. Some entries that bind do so weakly or less than the wild type. Blank lines part the entries; values can stand above or below the binder they belong to.

By UniProt entry, the sequences of proteins in these tests, tags left out. Where a name states a change or a piece, a line headed by the entry shows the natural chain unless it says otherwise.
UniProt Q86WV6: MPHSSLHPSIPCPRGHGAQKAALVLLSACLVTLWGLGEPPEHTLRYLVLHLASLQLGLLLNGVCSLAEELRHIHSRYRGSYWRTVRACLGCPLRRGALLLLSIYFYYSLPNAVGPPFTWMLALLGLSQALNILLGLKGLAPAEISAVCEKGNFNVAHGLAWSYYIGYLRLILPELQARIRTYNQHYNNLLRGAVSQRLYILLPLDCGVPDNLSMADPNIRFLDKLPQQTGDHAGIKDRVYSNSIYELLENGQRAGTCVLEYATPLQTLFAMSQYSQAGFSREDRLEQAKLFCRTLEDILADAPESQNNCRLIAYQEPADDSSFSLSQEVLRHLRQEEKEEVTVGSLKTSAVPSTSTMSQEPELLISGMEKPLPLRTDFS

What was measured:
[1] = target: Stimulator of interferon genes (STING), endogenous in KYSE-30 cells (human (endogenous in KYSE-30)) (UniProt Q86WV6); test: co-IP; endogenous STING precipitated with anti-STING antibody (abcam) and protein A/G agarose from KYSE-30 lysates (50 mM Tris-HCl pH 7.4, 150 mM NaCl, 1% NP-40, 0.1% SDS; 4 °C overnight), OGT detected by immunoblot; cells treated with poly(dA:dT) 2 μg/mL 16 h, TMG or DON
[2] = target: FLAG-tagged STING-WT expressed in HEK-293T cells (human) (UniProt Q86WV6); test: co-IP; HEK-293T transfected with FLAG-tagged STING-WT or -T229A; precipitated with anti-STING antibody (abcam), TRIM56 detected by immunoblot
[3] = target: FLAG-tagged STING-T229A expressed in HEK-293T cells (human) (UniProt Q86WV6); test: as above

- binding [1]: binds
B1: O-GlcNAc transferase (OGT), endogenous in KYSE-30 cells (enzyme, UniProt O15294 1-1046)
chain: MASSVGNVADSTEPTKRMLSFQGLAELAHREYQAGDFEAAERHCMQLWRQEPDNTGVLLLLSSIHFQCRRLDRSAHFSTLAIKQNPLLAEAYSNLGNVYKERGQLQEAIEHYRHALRLKPDFIDGYINLAAALVAAGDMEGAVQAYVSALQYNPDLYCVRSDLGNLLKALGRLEEAKACYLKAIETQPNFAVAWSNLGCVFNAQGEIWLAIHHFEKAVTLDPNFLDAYINLGNVLKEARIFDRAVAAYLRALSLSPNHAVVHGNLACVYYEQGLIDLAIDTYRRAIELQPHFPDAYCNLANALKEKGSVAEAEDCYNTALRLCPTHADSLNNLANIKREQGNIEEAVRLYRKALEVFPEFAAAHSNLASVLQQQGKLQEALMHYKEAIRISPTFADAYSNMGNTLKEMQDVQGALQCYTRAIQINPAFADAHSNLASIHKDSGNIPEAIASYRTALKLKPDFPDAYCNLAHCLQIVCDWTDYDERMKKLVSIVADQLEKNRLPSVHPHHSMLYPLSHGFRKAIAERHGNLCLDKINVLHKPPYEHPKDLKLSDGRLRVGYVSSDFGNHPTSHLMQSIPGMHNPDKFEVFCYALSPDDGTNFRVKVMAEANHFIDLSQIPCNGKAADRIHQDGIHILVNMNGYTKGARNELFALRPAPIQAMWLGYPGTSGALFMDYIITDQETSPAEVAEQYSEKLAYMPHTFFIGDHANMFPHLKKKAVIDFKSNGHIYDNRIVLNGIDLKAFLDSLPDVKIVKMKCPDGGDNADSSNTALNMPVIPMNTIAEAVIEMINRGQIQITINGFSISNGLATTQINNKAATGEEVPRTIIVTTRSQYGLPEDAIVYCNFNQLYKIDPSTLQMWANILKRVPNSVLWLLRFPAVGEPNIQQYAQNMGLPQNRIIFSPVAPKEEHVRRGQLADVCLDTPLCNGHTTGMDVLWAGTPMVTMPGETLASRVAASQLTCLGCLELIAKNRQEYEDIAVKLGTDLEYLKKVRGKVWKQRISSPLFNTKQYTMELERLYLQMWEHYAAGNKPDHMIKPVEVTESA

- binding [2]: binds
- binding [3]: binds
B2: TRIM56, endogenous in HEK-293T cells (enzyme, UniProt Q9BRZ2 1-755)
chain: MVSHGSSPSLLEALSSDFLACKICLEQLRAPKTLPCLHTYCQDCLAQLADGGRVRCPECRETVPVPPEGVASFKTNFFVNGLLDLVKARACGDLRAGKPACALCPLVGGTSTGGPATARCLDCADDLCQACADGHRCTRQTHTHRVVDLVGYRAGWYDEEARERQAAQCPQHPGEALRFLCQPCSQLLCRECRLDPHLDHPCLPLAEAVRARRPGLEGLLAGVDNNLVELEAARRVEKEALARLREQAARVGTQVEEAAEGVLRALLAQKQEVLGQLRAHVEAAEEAARERLAELEGREQVARAAAAFARRVLSLGREAEILSLEGAIAQRLRQLQGCPWAPGPAPCLLPQLELHPGLLDKNCHLLRLSFEEQQPQKDGGKDGAGTQGGEESQSRREDEPKTERQGGVQPQAGDGAQTPKEEKAQTTREEGAQTLEEDRAQTPHEDGGPQPHRGGRPNKKKKFKGRLKSISREPSPALGPNLDGSGLLPRPIFYCSFPTRMPGDKRSPRITGLCPFGPREILVADEQNRALKRFSLNGDYKGTVPVPEGCSPCSVAALQSAVAFSASARLYLINPNGEVQWRRALSLSQASHAVAALPSGDRVAVSVAGHVEVYNMEGSLATRFIPGGKASRGLRALVFLTTSPQGHFVGSDWQQNSVVICDGLGQVVGEYKGPGLHGCQPGSVSVDKKGYIFLTLREVNKVVILDPKGSLLGDFLTAYHGLEKPRVTTMVDGRYLVVSLSNGTIHIFRVRSPDS
